Test [1] addresses HB4a cell line transformed by over-expression of c-erbB-2 (Homo sapiens, UniProt P04626). Put plainly: Cell proliferation assay, HB4a erbB-2. To be noted: 4 days at 37° C., methylene blue staining. It counts as cell-based. The protocol:
The cell proliferation assay uses an immortalised human breast epithelial cell line (HB4a) which has been transformed by over-expression of c-erbB-2. Growth of these cells in low serum is dependent upon the c-erbB-2 tyrosine kinase activity. […] Cells are plated at 3000/ well in 96-well plates in 0.1 ml medium and allowed to attach overnight. test compound is added in 0.1 ml medium, with a final concentration of 0.5% DMSO, and the plates incubated for 4 days at 37° C. The cells are then examined microscopically for evidence of morphological detransformation and cell mass is estimated by staining with methylene blue and measuring the absorbance at 620 nm. […] Activity against a range of naturally occurring EGFr or c-erbB-2 over-expressing human tumour cell lines (BT474-breast, HN5-head and neck, N87-gastric and Calu3-lung) is assessed with selected compounds by the same methodology.

By UniProt entry, the sequences of proteins in these tests, tags left out. Residues count along the entry.
UniProt Q15303, 676-1308 limits assumed: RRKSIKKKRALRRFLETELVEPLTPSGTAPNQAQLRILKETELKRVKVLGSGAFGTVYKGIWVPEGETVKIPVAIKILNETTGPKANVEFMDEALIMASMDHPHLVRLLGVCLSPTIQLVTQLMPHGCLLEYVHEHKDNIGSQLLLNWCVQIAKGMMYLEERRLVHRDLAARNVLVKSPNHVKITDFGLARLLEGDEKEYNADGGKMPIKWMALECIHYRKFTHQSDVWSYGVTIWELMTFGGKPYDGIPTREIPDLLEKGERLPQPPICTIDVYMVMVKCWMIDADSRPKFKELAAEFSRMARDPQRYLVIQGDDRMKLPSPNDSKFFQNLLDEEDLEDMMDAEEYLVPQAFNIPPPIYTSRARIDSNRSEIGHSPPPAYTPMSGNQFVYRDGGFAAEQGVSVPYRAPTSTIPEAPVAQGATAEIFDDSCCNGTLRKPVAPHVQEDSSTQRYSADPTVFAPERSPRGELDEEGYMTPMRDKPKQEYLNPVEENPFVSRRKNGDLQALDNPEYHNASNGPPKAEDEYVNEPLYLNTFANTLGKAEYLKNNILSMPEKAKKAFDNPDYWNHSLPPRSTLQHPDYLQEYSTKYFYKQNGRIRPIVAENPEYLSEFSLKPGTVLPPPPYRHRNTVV

In test [2] the target is T1, c-erbB-4 (baculovirus expressed, recombinant intracellular domain) (Homo sapiens, UniProt Q15303).
T1 construct: baculovirus expressed, recombinant constructs of the intracellular domains of c-erbB-2 and c-erbB-4; made in house
The test can be described thus: Substrate phosphorylation assay, c-erbB-4. It counts as biochemical. The protocol: (§1) The substrate phosphorylation assays use baculovirus expressed, recombinant constructs of the intracellular domains of c-erbB-2 and c-erbB-4 that are constitutively active and EGFr isolated from solubilised A431 cell membranes. The method measures the ability of the isolated enzymes to catalyse the transfer of the γ-phosphate from ATP onto tyrosine residues in a biotinylated synthetic peptide (Biotin-[…]. […] The reaction is stopped by the addition of EDTA (final concentration 0.15 mM) and a sample is transferred to a streptavidin-coated 96-well plate. The plate is washed and level of phosphotyrosine on the peptide is determined using a Europium-labelled antiphosphotyrosine antibody and quantified with a time-resolved fluorescence technique.

For test [3], the system named is HB4a cell line transfected with ras. Put plainly: Cell proliferation assay, HB4a ras. The format is cell-based. To be noted: Homo sapiens, 96 h, 4 days at 37° C., methylene blue staining, general toxicity control.
Test [4] has as its target T2, c-erbB-2 (baculovirus expressed, recombinant intracellular domain) (Homo sapiens, UniProt P04626).
T2 construct: baculovirus expressed, recombinant constructs of the intracellular domains of c-erbB-2 and c-erbB-4; made in house
The test can be described thus: Substrate phosphorylation assay, c-erbB-2. It counts as biochemical. The protocol:
as §1

In general, GI50 refers to the concentration at which growth is held to half of that of the control. Read a low GI50 as greater sensitivity of the cells. In general, IC50 refers to the concentration needed to halve the response being measured. `CC(CN(C)C)NCc1ccc(-c2ccc3ncnc(Nc4ccc(OCc5ccccc5)cc4)c3c2)o1` (stereo not shown) [Example 12, N2-(5-(4-(4-Benzyloxy-phenylamino)-quinazolin-6-yl)-furan-2-ylmethyl)-N1,N1-dimethyl-propane-1,2-diamine] had a GI50 in test [1] of 840 nM. The IC50 turned out to be 1400 nM in test [2], 2500 nM in test [3] and 120 nM in test [4].

The values are drawn from patent publication US6828320B2, “Heterocyclic compounds” (SmithKline Beecham Corporation, priority 1996, dated 2004).
